Test results taken from the supplement of paper PMC4635364.
Where a name gives a salt, the structure may show the parent alone. The list shows a part of the results. Repeats in this data set agree poorly, so a single value says little.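 ReNCell VM, a human fetal ventral-midbrain neural progenitor line, was differentiated without mitogens. Blinded raters scored images stained for doublecortin (early neurons) or tyrosine hydroxylase (dopaminergic neurons) against untreated wells (0 = no change). Scores were averaged across repeats and both raters, and compounds averaging 2 or more were selected as hits for retesting.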

These compounds were tested on ReNCell VM (assay: neuronal differentiation score (DCX+ cell fraction vs untreated, manual image score) (score (-3 to 3)); higher = more neuronal differentiation). Details: library: LOPAC; 2 uM; 2 weeks.
For `C=CC1=C(C)c2cc3[nH]c(cc4nc(cc5[nH]c(cc1n2)c(C)c5CCC(=O)O)C(CCC(=O)O)=C4C)c(C)c3C=C` [Protoporphyrin IX disodium], the neuronal differentiation score was inactive: 0.
With `N[C@@H](Cc1ccc(O)c(O)c1)C(=O)O` [L-3,4-Dihydroxyphenylalanine] the neuronal differentiation score was inactive: 0.
For `Cn1c(=O)c2[nH]c(C3CCCC3)nc2n(C)c1=O` [8-Cyclopentyl-1,3-dimethylxanthine], the neuronal differentiation score was inactive: -1.
For `c1cc(CN2CCCCC2)cc(OCCCNc2nc3ccccc3s2)c1`, the neuronal differentiation score was active: 2.
`CN(C)c1nc(N)c(C(=O)NC(=N)N)nc1Cl` [5-(N,N-Dimethyl)amiloride hydrochloride] was tested, and the neuronal differentiation score was active: 2.
In the case of `N[C@@H](Cc1ccc(F)cc1)C(=O)O` [p-Fluoro-L-phenylalanine], the neuronal differentiation score is reported as inactive: 0.

Same assay, conditions: library: Prestwick; 2 uM; 2 weeks
`CC(=O)OCC(=O)[C@@]12OC3(CCCC3)O[C@@H]1C[C@H]1[C@@H]3CCC4=CC(=O)C=C[C@]4(C)[C@@]3(F)[C@@H](O)C[C@@]12C` [Amcinonide] was tested, and the neuronal differentiation score was inactive: 0.
In the case of `CCc1cc(C(N)=S)ccn1` [Ethionamide], the neuronal differentiation score is reported as inactive: 0.
With `CO/N=C(\C(=O)N[C@@H]1C(=O)N2C(C(=O)O)=C(COC(N)=O)CS[C@H]12)c1ccco1` [Cefuroxime sodium salt] the neuronal differentiation score was inactive: 0.
For `NS(=O)(=O)c1cc(C(=O)O)cc(N2CCCC2)c1Oc1ccccc1` [Piretanide], the neuronal differentiation score was inactive: 0.
In the case of `N#Cc1ccc(C(c2ccc(C#N)cc2)n2cncn2)cc1` [Letrozole], the neuronal differentiation score is reported as inactive: 0.
With `CCN(CC)C(=O)/C(C#N)=C/c1cc(O)c(O)c([N+](=O)[O-])c1` [Entacapone] the neuronal differentiation score was inactive: 0.

Same assay, conditions: library: Spectrum; 2 uM; 2 weeks
With `COc1ccccc1N1CCN(CC(O)COc2cccc3ccccc23)CC1` (stereo not given) the neuronal differentiation score was inactive: -1.
In the case of `CC1(C)CC2C1CCC1(C)OC2(C)CCC1O` (stereo not given), the neuronal differentiation score is reported as inactive: 0.
`CCN(CCCCOC(=O)c1ccc(OC)c(OC)c1)C(C)Cc1ccc(OC)cc1` (stereo not given) was tested, and the neuronal differentiation score was inactive: 0.
In the case of `CCCCNC(=O)NS(=O)(=O)c1ccc(C)cc1`, the neuronal differentiation score is reported as inactive: -1.
In the case of `O=C(O)C(S)C(S)C(=O)O` (stereo not given), the neuronal differentiation score is reported as inactive: 0.
In the case of `CCCCCC(C)N` (stereo not given), the neuronal differentiation score is reported as inactive: 0.
In the case of `CC1(C)CC2C1CC[C@]1(CBr)CCC3C(CC(=O)O)C(=O)O[C@@]32C1` (stereo not given in full) [BROMO-3-HYDROXY-4-(SUCCIN-2-YL)-CARYOLANE gamma-LACTONE], the neuronal differentiation score is reported as inactive: 0.
For `NNC(=O)c1ccncc1.Nc1ccc(C(=O)O)c(O)c1`, the neuronal differentiation score was inactive: 0.
In the case of `CCC[C@@H]1C[C@@H](C(=O)N[C@@H]([C@H]2O[C@H](SC)[C@H](O)[C@@H](O)[C@H]2O)[C@@H](C)O)N(C)C1`, the neuronal differentiation score is reported as inactive: 0.
In the case of `Nc1nc2c(ncn2COCCO)c(=O)[nH]1`, the neuronal differentiation score is reported as inactive: 0.
In the case of `COc1cc(C)c2c(=O)cc(-c3ccccc3)oc2c1`, the neuronal differentiation score is reported as inactive: 0.
With `CO[C@H]1[C@H](O)[C@@H](O)[C@H](O)[C@H](O)[C@H]1O` the neuronal differentiation score was inactive: 0.
With `CC(C)NCC(O)c1ccc(O)c(O)c1` (stereo not given) the neuronal differentiation score was active: 3.
For `CC(=O)NC[C@H]1CN(c2ccc(N3CCOCC3)c(F)c2)C(=O)O1`, the neuronal differentiation score was inactive: 0.
`Cc1ccc(C(=O)Nc2ccc(S(=O)(=O)O)c3cc(S(=O)(=O)O)cc(S(=O)(=O)O)c23)cc1NC(=O)c1cccc(NC(=O)Nc2cccc(C(=O)Nc3cc(C(=O)Nc4ccc(S(=O)(=O)O)c5cc(S(=O)(=O)O)cc(S(=O)(=O)O)c45)ccc3C)c2)c1` was tested, and the neuronal differentiation score was inactive: 0.
`CC(=O)Nc1ccc(CC(=O)O)cc1` was tested, and the neuronal differentiation score was inactive: 0.
In the case of `OCC(O)C(O)C(O)C(O)C(O)CO` (stereo not given), the neuronal differentiation score is reported as inactive: 0.
In the case of `C#CCCCCCCCCCCCC(O)CC(O)COC(C)=O` (stereo not given), the neuronal differentiation score is reported as inactive: 0.
For `CC(C)(Oc1ccc(CCNC(=O)c2ccc(Cl)cc2)cc1)C(=O)O`, the neuronal differentiation score was inactive: 0.
With `Cc1nnc(SCC2=C(C(=O)O)N3C(=O)[C@@H](NC(=O)Cn4cnnn4)[C@H]3SC2)s1` the neuronal differentiation score was inactive: 0.
With `CNCCCN1c2ccccc2CCc2ccccc21` the neuronal differentiation score was inactive: 0.

Same assay, conditions: library: Tocriscreen; 2 uM; 2 weeks
In the case of `CCC(=O)OCN1C(=O)C=CC1=O`, the neuronal differentiation score is reported as inactive: 0.
`Cc1c(NC(=O)N2CCOCC2)ccc2c1c1ccccc1n2C(C)C` was tested, and the neuronal differentiation score was inactive: 0.
With `NS(=O)(=O)c1cccc2c1c([N+](=O)[O-])cc1nc(O)c(O)nc12` [NBQX disodium salt] the neuronal differentiation score was inactive: 0.
With `C[C@@]1(O)[C@H](O)[C@@H](CO)O[C@H]1n1cnc2c(NC3CCCC3)nc(Cl)nc21` the neuronal differentiation score was inactive: 1.
In the case of `O=C1CC2(CCCC2)CC(=O)N1CCNCC1COc2ccccc2O1` (stereo not given), the neuronal differentiation score is reported as inactive: 0.
For `CCCCCCN(CCCCCC)C(=O)Cc1c(-c2ccc(Cl)cc2)[nH]c2ccc(Cl)cc12`, the neuronal differentiation score was inactive: 0.

The compounds below were run on ReNCell VM (assay: dopaminergic neuron differentiation score (TH+ cell fraction vs untreated, manual image score) (score (0 to 3)); higher = more TH+ dopaminergic neuron differentiation). Details: library: LOPAC; 2 uM; 4 weeks; BDNF 10 ng/ml + GDNF 10 ng/ml.
`C=CC1=C(C)c2cc3[nH]c(cc4nc(cc5[nH]c(cc1n2)c(C)c5CCC(=O)O)C(CCC(=O)O)=C4C)c(C)c3C=C` [Protoporphyrin IX disodium] was tested, and the “dopaminergic neuron differentiation score” value was inactive: 0.
For `N[C@@H](Cc1ccc(O)c(O)c1)C(=O)O` [L-3,4-Dihydroxyphenylalanine], the “dopaminergic neuron differentiation score” value was inactive: 0.
For `Cn1c(=O)c2[nH]c(C3CCCC3)nc2n(C)c1=O` [8-Cyclopentyl-1,3-dimethylxanthine], the “dopaminergic neuron differentiation score” value was inactive: 0.
In the case of `c1cc(CN2CCCCC2)cc(OCCCNc2nc3ccccc3s2)c1`, the “dopaminergic neuron differentiation score” value is reported as inactive: 0.
With `CN(C)c1nc(N)c(C(=O)NC(=N)N)nc1Cl` [5-(N,N-Dimethyl)amiloride hydrochloride] the “dopaminergic neuron differentiation score” value was inactive: 0.
`N[C@@H](Cc1ccc(F)cc1)C(=O)O` [p-Fluoro-L-phenylalanine] was tested, and the “dopaminergic neuron differentiation score” value was inactive: 1.
